Article PMC12421377, “Molecular basis for the recognition of low-frequency polyadenylation signals by mPSF”
Results are given in words; binding and its absence hold for the method and conditions named. Some entries that bind do so weakly or less than the wild type.

Sequences of proteins named here, by UniProt entry; tags and fusion partners are left off.
UniProt O95639: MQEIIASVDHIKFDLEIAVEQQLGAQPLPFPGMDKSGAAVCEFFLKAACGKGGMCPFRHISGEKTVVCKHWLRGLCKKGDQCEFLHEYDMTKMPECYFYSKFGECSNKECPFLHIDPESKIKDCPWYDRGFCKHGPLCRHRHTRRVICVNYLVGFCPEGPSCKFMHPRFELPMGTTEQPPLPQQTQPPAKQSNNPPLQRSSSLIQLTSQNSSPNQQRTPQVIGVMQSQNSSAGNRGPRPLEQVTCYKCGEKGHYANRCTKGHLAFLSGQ

Molecular target: T1, WDR33 (residues 1-572) (human) (UniProt Q9C0J8)
T1 sequence: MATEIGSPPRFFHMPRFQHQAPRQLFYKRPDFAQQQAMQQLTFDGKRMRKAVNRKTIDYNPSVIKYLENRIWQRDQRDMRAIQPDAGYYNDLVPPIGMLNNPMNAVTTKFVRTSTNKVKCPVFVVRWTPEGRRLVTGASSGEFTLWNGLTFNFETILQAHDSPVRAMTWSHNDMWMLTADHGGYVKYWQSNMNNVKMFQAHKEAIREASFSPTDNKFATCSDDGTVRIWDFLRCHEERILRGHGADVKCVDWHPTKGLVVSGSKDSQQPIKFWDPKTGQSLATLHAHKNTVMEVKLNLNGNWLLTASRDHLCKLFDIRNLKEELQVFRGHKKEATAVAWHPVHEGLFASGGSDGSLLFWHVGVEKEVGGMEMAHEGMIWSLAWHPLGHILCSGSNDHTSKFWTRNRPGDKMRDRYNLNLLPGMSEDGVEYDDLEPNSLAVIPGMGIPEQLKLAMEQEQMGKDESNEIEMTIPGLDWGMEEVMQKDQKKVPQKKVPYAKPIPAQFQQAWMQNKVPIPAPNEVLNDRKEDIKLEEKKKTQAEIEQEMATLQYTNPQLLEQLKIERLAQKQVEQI
Experiment: cryo-EM structure; 1.4 uM mPSF mixed with 25 uM 12-mer RNA oligo (AAUAAU or AGUAAA); 20 mM Tris pH 8.0, 150 mM NaCl, 2 mM DTT; on ice 1 h; both purified

- binding: binds
Substance: CPSF30 (from UniProt O95639 1-269)
